Laboratory results published in article PMC10761714.
Results are given in words; binding and its absence hold for the method and conditions named. A result given as binding can be weak or reduced; the word gives no strength. For some assays here: In cells and extracts the contact can be indirect. Blank lines part the entries; values can stand above or below the binder they belong to.

Key:
[1] = biological target: Mouse STYXL1 in pGBKT7 (yeast two-hybrid bait) (mouse); test: two-hybrid; STYXL1 in pGBKT7 as bait, CCT1-CCT8 in pGADT7 as prey; yeast AH109, 30 °C 2-3 days, SD-Leu-Trp-His plates
[2] = biological target: N-terminal region of STYXL1 (N, 1-167 aa) (mouse); test: co-IP; co-transfected HEK293T cells, 48 h; IP lysis buffer; anti-DYKDDDDK resin at 4 °C overnight; washed with 20 mM Tris pH 7.4, 150 mM NaCl, 0.5% Triton X-100, 1 mM EDTA; immunoblot

- binding [1]: binds
B1: Mouse CCT7 in pGADT7 (yeast two-hybrid prey) (protein, UniProt P80313 1-544)
chain: MMPTPVILLKEGTDSSQGIPQLVSNISACQVIAEAVRTTLGPRGMDKLIVDGRGKATISNDGATILKLLDVVHPAAKTLVDIAKSQDAEVGDGTTSVTLLAAEFLKQVKPYVEEGLHPQIIIRAFRTATQLAVNKIKEIAVTVKKQDKVEQRKMLEKCAMTALSSKLISQQKVFFAKMVVDAVMMLDELLQLKMIGIKKVQGGALEESQLVAGVAFKKTFSYAGFEMQPKKYKNPKIALLNVELELKAEKDNAEIRVHTVEDYQAIVDAEWNILYDKLEKIHQSGAKVILSKLPIGDVATQYFADRDMFCAGRVPEEDLKRTMMACGGSIQTSVNALVPDVLGHCQVFEETQIGGERYNFFTGCPKAKTCTIILRGGAEQFMEETERSLHDAIMIVRRAIKNDSVVAGGGAIEMELSKYLRDYSRTIPGKQQLLIGAYAKALEIIPRQLCDNAGFDATNILNKLRARHAQGGMWYGVDINNENIADNFQAFVWEPAMVRINALTAASEAACLIVSVDETIKNPRSTVDPPAPSAGRGRGQARFH

- binding [2]: binds
B2: CCT7 (co-IP construct) (protein, UniProt P80313 1-544)
chain: B1 chain
